How the values were obtained:
Assay type in all cases: cell-based
[1] = tested on: BEL-7402 liver cancer cell; assay: MTT anti-proliferative assay, BEL-7402; conditions: Homo sapiens, Bel-7402, 48 h, read-out: IC50 BEL-7402
Description: (§1) The anti-proliferation activities of the synthesized analogs were assessed by an in vitro MTT assay conducted on thirteen human cell lines. Their cytotoxic activities were evaluated by measuring the inhibition of net cell growth. […]
(§2) 1.6. Cell lines and cell culture
(§3) MTT was purchased from Sigma-Aldrich Co. (St. Louis, MO, USA). The PI and Annexin V-FITC apoptosis detection kit were purchased from Invitrogen (Eugene, OR, USA). All human cell lines were used in this study. […]
(§4) cell, MCF-7 breast cancer cell, MCF-10A normal breast cell, Raji B lymphoblastoid cell and diffuse large B-cell lymphoma SU-DHL-10 cell were initially purchased from American Type Culture Collection (ATCC, Manassas, Virginia). media, DMEM, and FBS were provided from Gibco Company.
(§5) 1.7. Cell growth inhibition assay (MTT assay)
(§6) The experiment was carried out according to the method of reference. Briefly, cells were plated in 96-well plates at a den- […]
(§7) the anti-proliferative activities were determined by MTT assay. […]
(§8) (Becton-Dickinson, Franklin Lakes, NJ). […]

L-02 normal liver cell = assay: MTT assay, L-02 normal cells; conditions: Homo sapiens, 48 h, read-out: IC50 L-02
Description: as §1, §2, §3, §4, §5, §6, §7, §8

[2] = tested on: MGC-803 late stage differentiation gastric cancer cell; assay: MTT anti-proliferative assay, MGC-803; conditions: Homo sapiens, MGC-803, 48 h, read-out: IC50 MGC-803
Description: as §1, §2, §3, §4, §5, §6, §7, §8

MCF-7 breast cancer cell = assay: MTT anti-proliferative assay, MCF-7; conditions: Homo sapiens, MCF7, 48 h, read-out: IC50 MCF-7
Description: as §1, §2, §3, §4, §5, §6, §7, §8

[3] = tested on: Raji B lymphoblastoid cell; assay: MTT anti-proliferative assay, Raji; conditions: Homo sapiens, 48 h, read-out: IC50 Raji
Description: as §1, §2, §3, §4, §5, §6, §7, §8

[4] = tested on: diffuse large B-cell lymphoma SU-DHL-10 cell; assay: MTT anti-proliferative assay, SU-DHL-10; conditions: Homo sapiens, SU-DHL10, 48 h, read-out: IC50 SU-DHL-10
Description: as §1, §2, §3, §4, §5, §6, §7, §8

## COc1cc2c(c(OC)c1OC)-c1ccc(OC)c(=O)cc1[C@@H](NC(C)=O)CC2 [Colchicine, colchicine, reference compound]
[1]
  IC50: 20 ± 1 nM
L-02 normal liver cell
  IC50: 400 ± 20 nM
[2]
  IC50: 130 ± 10 nM
MCF-7 breast cancer cell
  IC50: 600 ± 300 nM
[3]
  IC50: 300 ± 100 nM
[4]
  IC50: 290 ± 1 nM

Source: article PMC11071649, “Synthesis and Selective Anticancer Activity Evaluation of 2-phenylacrylonitrile Derivatives as Tubulin Inhibitors” (Current Medicinal Chemistry, 2024)
